# Measurements taken from publication PMC4466309.
# Results are given in words; binding and its absence hold for the method and conditions named. In cells and extracts the contact can be indirect. For part of these data: Binding calls can cover weak binding; strength is not graded here. Where a sequence is shown, tags or fusion partners need not be part of it.
# Biological target: T1, Flag-FBXO45 (human) (UniProt P0C2W1)
# T1 sequence: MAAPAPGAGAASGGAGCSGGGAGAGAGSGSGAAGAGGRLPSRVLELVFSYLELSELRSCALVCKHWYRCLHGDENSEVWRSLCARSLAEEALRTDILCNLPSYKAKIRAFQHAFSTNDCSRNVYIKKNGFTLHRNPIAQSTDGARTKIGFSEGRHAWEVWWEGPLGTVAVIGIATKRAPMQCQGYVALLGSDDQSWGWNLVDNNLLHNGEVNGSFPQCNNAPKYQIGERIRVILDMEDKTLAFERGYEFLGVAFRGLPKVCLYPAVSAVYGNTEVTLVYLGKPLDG
# Assay: co-IP; HEK293T cells co-transfected with a Flag-tagged and an eGFP-fused protein; anti-Flag M2 affinity gel, 4°C overnight; 20 mM Tris pH 7.8, 150 mM NaCl, 10% glycerol, 0.3% Triton-X100; Western blot with anti-Flag and anti-GFP
row,binding,Substance
1,binds,eGFP-Hey1 ΔO (from UniProt Q9WV93)
2,binds,eGFP-Hey1 HLH domain (domain or fragment)
3,binds,eGFP-Hey1 ΔC-ter (domain or fragment)
4,binds,eGFP-Hey1 Δb (from UniProt Q9WV93)
5,binds,eGFP-Hey1 ΔbHLH (from UniProt Q9WV93)

# Biological target: T2, Flag-Strep (FS)-Hey1 (UniProt Q9WV93)
# T2 sequence: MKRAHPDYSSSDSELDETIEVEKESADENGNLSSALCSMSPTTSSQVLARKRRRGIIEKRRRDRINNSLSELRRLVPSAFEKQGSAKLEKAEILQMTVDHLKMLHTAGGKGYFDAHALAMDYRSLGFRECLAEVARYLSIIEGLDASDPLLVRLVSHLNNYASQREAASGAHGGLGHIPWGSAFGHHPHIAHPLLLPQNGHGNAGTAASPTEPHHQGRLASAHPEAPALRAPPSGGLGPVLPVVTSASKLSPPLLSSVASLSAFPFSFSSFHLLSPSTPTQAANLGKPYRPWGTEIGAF
# Assay: co-IP; Dox-induced HEK293 lines (FS-Hey1, FS-Hey2, Flag-HeyL, FS-Hes1) transfected with eGFP constructs; anti-Flag M2 affinity gel, 4°C overnight; 20 mM Tris pH 7.8, 150 mM NaCl, 10% glycerol, 0.3% Triton-X100; Western blot with anti-Flag and anti-GFP
row,binding,Substance
1,no binding,eGFP-FBXO45ΔS (human) (domain or fragment)
